Data from the primary screen of doi:10.1371/journal.pone.0140310, rounded.

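The test systems are human melanoma cell lines, treated with two drugs together for 72 h and then stained and imaged. Each value is the count of nuclei relative to DMSO-treated wells, in %, so that 100 equals the control. Every drug was used at one fixed concentration, the higher of two screened. These are primary screening values without error estimates.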 This is part of the screen, not chosen by result. An entry leaves out what has no value listed here.

Every entry is a combination with pioglitazone at 10000 nM: CCc1ccc(CCOc2ccc(CC3SC(=O)NC3=O)cc2)nc1 (stereo not shown)

{"second drug": "O=C(Nc1ccccc1)c1cc([N+](=O)[O-])ccc1Cl at 10000 nM", "COLO 800": 98.4, "WM3619": 51.0, "COLO 792": 97.7, "COLO 829": 86.9, "C32": 133, "WM451Lu": 91.7}
{"second drug": "Nc1cccc2c1CN(C1CCC(=O)NC1=O)C2=O (stereo not shown) at 5000 nM", "COLO 800": 71.1, "WM3619": 65.9, "COLO 792": 95.1, "COLO 829": 95.1, "C32": 89.6, "WM451Lu": 93.0}
{"second drug": "NC1(c2ccc(-c3nc4ccn5c(=O)[nH]nc5c4cc3-c3ccccc3)cc2)CCC1 at 2000 nM", "COLO 800": 53.4, "WM3619": 86.8, "COLO 792": 51.2, "COLO 829": 74.7, "C32": 84.3, "WM451Lu": 85.8}
{"second drug": "COc1ccc(C2=N[C@@H](c3ccc(Cl)cc3)[C@@H](c3ccc(Cl)cc3)N2C(=O)N2CCNC(=O)C2)c(OC(C)C)c1 at 500 nM", "COLO 800": 106, "WM3619": 104, "COLO 792": 103, "COLO 829": 88.8, "C32": 83.4, "WM451Lu": 89.0}
{"second drug": "Cn1nnc2c(C(N)=O)ncn2c1=O at 10000 nM", "COLO 800": 114, "WM3619": 71.3, "COLO 792": 90.4, "COLO 829": 78.3, "C32": 101, "WM451Lu": 83.4}
{"second drug": "Cc1ccc(Nc2nccc(N(C)c3ccc4c(C)n(C)nc4c3)n2)cc1S(N)(=O)=O at 2000 nM", "COLO 800": 97.0, "WM3619": 90.3, "COLO 792": 93.6, "COLO 829": 94.0, "C32": 102, "WM451Lu": 105}
{"second drug": "CO[C@@H]1[C@H](N(C)C(=O)c2ccccc2)C[C@H]2O[C@]1(C)n1c3ccccc3c3c4c(c5c6ccccc6n2c5c31)C(=O)NC4 at 400 nM", "COLO 800": 35.1, "WM3619": 57.8, "COLO 792": 39.3, "COLO 829": 75.3, "C32": 61.9, "WM451Lu": 44.0}
{"second drug": "O=C(/C=C/c1cccnc1)NCCCCC1CCN(C(=O)c2ccccc2)CC1 at 50 nM", "COLO 800": 42.2, "WM3619": 105, "COLO 792": 46.7, "COLO 829": 53.9, "C32": 87.7, "WM451Lu": 90.4}
{"second drug": "Cn1cncc1[C@@](N)(c1ccc(Cl)cc1)c1ccc2c(c1)c(-c1cccc(Cl)c1)cc(=O)n2C at 50 nM", "COLO 800": 123, "WM3619": 79.2, "COLO 792": 74.9, "COLO 829": 114, "C32": 91.7, "WM451Lu": 67.0}
{"second drug": "COc1cc(N2CCC(N3CCN(C)CC3)CC2)ccc1Nc1ncc(Cl)c(Nc2ccccc2S(=O)(=O)C(C)C)n1 at 400 nM", "COLO 800": 96.2, "WM3619": 94.3, "COLO 792": 90.8, "COLO 829": 85.9, "C32": 86.4, "WM451Lu": 72.5}
{"second drug": "O=C(Oc1ccc([N+](=O)[O-])cc1)N1CCC(C(O)(c2ccc3c(c2)OCO3)c2ccc3c(c2)OCO3)CC1 at 5000 nM", "COLO 800": 165, "WM3619": 107, "COLO 792": 104, "COLO 829": 89.3, "C32": 82.1, "WM451Lu": 115}
{"second drug": "O=C(Nc1cccc(Cl)c1)Nc1ncc(CCNc2ncnc3ccsc23)s1 at 4 nM", "COLO 800": 35.7, "WM3619": 73.6, "COLO 792": 69.0, "COLO 829": 79.1, "C32": 72.6, "WM451Lu": 60.3}
{"second drug": "CS(=O)(=O)CCNCc1ccc(-c2ccc3ncnc(Nc4ccc(OCc5cccc(F)c5)c(Cl)c4)c3c2)o1 at 4000 nM", "COLO 800": 76.4, "WM3619": 70.2, "COLO 792": 79.6, "COLO 829": 94.4, "C32": 101, "WM451Lu": 97.7}
{"second drug": "Cn1c(=O)n(-c2ccc(C(C)(C)C#N)cc2)c2c3cc(-c4cnc5ccccc5c4)ccc3ncc21 at 20 nM", "COLO 800": 58.3, "WM3619": 74.5, "COLO 792": 82.7, "COLO 829": 73.7, "C32": 101, "WM451Lu": 96.0}
{"second drug": "COc1cc2c(Oc3ccc4[nH]c(C)cc4c3F)ncnc2cc1OCCCN1CCCC1 at 2000 nM", "COLO 800": 82.3, "WM3619": 87.6, "COLO 792": 92.2, "COLO 829": 88.0, "C32": 88.7, "WM451Lu": 109}
{"second drug": "C=CCNC1=C2C[C@@H](C)C[C@H](OC)[C@H](O)[C@@H](C)/C=C(\\C)[C@H](OC(N)=O)[C@@H](OC)/C=C\\C=C(/C)C(=O)NC(=CC1=O)C2=O at 10 nM", "COLO 800": 105, "WM3619": 51.8, "COLO 792": 70.7, "COLO 829": 98.8, "C32": 10.2, "WM451Lu": 67.8}
{"second drug": "N#CC[C@H](C1CCCC1)n1cc(-c2ncnc3[nH]ccc23)cn1 at 5000 nM", "WM3619": 94.6, "COLO 792": 102, "COLO 829": 120, "C32": 73.3, "WM451Lu": 83.7}
{"second drug": "CC(=O)c1c(C)c2cnc(Nc3ccc(N4CCNCC4)cn3)nc2n(C2CCCC2)c1=O at 200 nM", "COLO 800": 100, "WM3619": 79.9, "COLO 792": 57.2, "COLO 829": 84.9, "C32": 71.1, "WM451Lu": 78.2}
{"second drug": "O=C(O)c1ccc2c(c1)nc(Nc1cccc(Cl)c1)c1ccncc12 at 2000 nM", "COLO 800": 59.8, "WM3619": 63.9, "COLO 792": 64.7, "COLO 829": 48.6, "C32": 84.0, "WM451Lu": 91.5}
{"second drug": "CN(NC(=O)CC(=O)NN(C)C(=S)c1ccccc1)C(=S)c1ccccc1 at 30 nM", "COLO 800": 19.9, "WM3619": 13.5, "COLO 792": 41.4, "COLO 829": 59.2, "C32": 31.9, "WM451Lu": 72.5}
{"second drug": "Cn1c(Nc2ccc(C(F)(F)F)cc2)nc2cc(Oc3ccnc(-c4ncc(C(F)(F)F)[nH]4)c3)ccc21 at 400 nM", "COLO 800": 66.8, "WM3619": 40.4, "COLO 792": 27.9, "COLO 829": 71.5, "C32": 71.2, "WM451Lu": 50.5}
{"second drug": "C=C(c1ccc(C(=O)O)cc1)c1cc2c(cc1C)C(C)(C)CCC2(C)C at 10000 nM", "COLO 800": 180, "WM3619": 111, "COLO 792": 95.4, "COLO 829": 71.2, "C32": 104, "WM451Lu": 105}
{"second drug": "CO[C@H]1C[C@@H]2CC[C@@H](C)[C@@](O)(O2)C(=O)C(=O)N2CCCC[C@H]2C(=O)O[C@H]([C@H](C)C[C@@H]2CC[C@@H](OCCO)[C@H](OC)C2)CC(=O)[C@H](C)/C=C(\\C)[C@@H](O)[C@@H](OC)C(=O)[C@H](C)C[C@H](C)/C=C/C=C/C=C/1C at 100 nM", "COLO 800": 87.9, "WM3619": 62.4, "COLO 792": 56.0, "COLO 829": 80.7, "C32": 92.1, "WM451Lu": 81.1}
{"second drug": "Nc1nc(F)nc2c1ncn2[C@@H]1O[C@H](CO)[C@@H](O)[C@@H]1O at 1000 nM", "COLO 800": 112, "WM3619": 89.7, "COLO 792": 65.8, "COLO 829": 108, "C32": 94.1, "WM451Lu": 111}
{"second drug": "Clc1ccc(Nc2nnc(Cc3ccncc3)c3ccccc23)cc1 at 10000 nM", "COLO 800": 64.6, "WM3619": 48.1, "COLO 792": 73.0, "COLO 829": 69.9, "C32": 91.2, "WM451Lu": 85.3}
{"second drug": "C=CCn1c(=O)c2cnc(Nc3ccc(N4CCN(C)CC4)cc3)nc2n1-c1cccc(C(C)(C)O)n1 at 100 nM", "COLO 800": 70.0, "WM3619": 33.5, "COLO 792": 84.2, "COLO 829": 96.0, "C32": 93.3, "WM451Lu": 79.2}
{"second drug": "CN1CCN(c2ccc3nc(-c4c(N)c5c(F)cccc5[nH]c4=O)[nH]c3c2)CC1 at 500 nM", "COLO 800": 82.3, "WM3619": 82.6, "COLO 792": 57.5, "COLO 829": 63.4, "C32": 72.5, "WM451Lu": 89.8}
{"second drug": "C[C@]1(c2nc3c(C(N)=O)cccc3[nH]2)CCCN1 at 7000 nM", "COLO 800": 41.6, "WM3619": 68.2, "COLO 792": 106, "COLO 829": 82.9, "C32": 80.1, "WM451Lu": 94.8}
{"second drug": "Nc1ncn([C@H]2C[C@H](O)[C@@H](CO)O2)c(=O)n1 at 500 nM", "COLO 800": 56.7, "WM3619": 67.3, "COLO 792": 69.6, "COLO 829": 74.3, "C32": 92.8, "WM451Lu": 59.4}
{"second drug": "OCCn1cc(-c2cnc3nnn(Cc4ccc5ncccc5c4)c3n2)cn1 at 5000 nM", "COLO 800": 70.0, "WM3619": 77.8, "COLO 792": 83.6, "COLO 829": 104, "C32": 104, "WM451Lu": 88.2}
{"second drug": "C[C@@H]1CCN(C(=O)CC#N)C[C@@H]1N(C)c1ncnc2[nH]ccc12 at 5000 nM", "COLO 800": 64.8, "COLO 792": 91.7, "COLO 829": 134, "C32": 102, "WM451Lu": 80.3}
{"second drug": "O=C(Nc1cc(C(F)(F)F)cc(C(F)(F)F)c1)c1cc(Cl)ccc1O at 80 nM", "COLO 800": 113, "WM3619": 106, "COLO 792": 96.5, "COLO 829": 133, "C32": 96.5, "WM451Lu": 115}

Repeated from the top, 2 entries:

- O=C(Nc1ccccc1)c1cc([N+](=O)[O-])ccc1Cl at 10000 nM : COLO 800: 98.4; WM3619: 51.0; COLO 792: 97.7; COLO 829: 86.9; C32: 133; WM451Lu: 91.7
- Nc1cccc2c1CN(C1CCC(=O)NC1=O)C2=O (stereo not shown) at 5000 nM : COLO 800: 71.1; WM3619: 65.9; COLO 792: 95.1; COLO 829: 95.1; C32: 89.6; WM451Lu: 93.0